PubChem BioAssay AID1224830 – NIAID – 2016
Shown is a random part of about 18,000 reagents. About 2,900 of them (16%) were called active. 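Calls are made per well; low scores hint the gene aids the LPS response, high scores that it dampens it.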 Repeated entries: four replicate wells of each siRNA pool.

Purpose: 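Genes whose knock-down alters the TNF-alpha reporter response to LPS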 (primary screen)
System: human THP-1 monocytic leukaemia cells, TNF dual-luciferase reporter clone, PMA-differentiated to macrophage-like cells
Knock-down reagent: siRNA pool against human genes, 50 nM
Timing: LPS for 4 h, given about 3 days after siRNA transfection
Treatment: bacterial LPS (TLR4 ligand), 10 ng/ml
Measurement: 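TNF firefly reporter luminescence divided by renilla, normalised to the plate median, then turned into a robust z-score for each replicate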
Reading the numbers: TNF reporter robust z-score: higher = stronger TNF reporter response to LPS
Active means: 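a well is active when its z-score exceeds 2.8 or falls below -1.5; control wells carry no call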

Gene	TNF reporter robust z-score	outcome
SLC17A3 (GeneID 10786)	-1.64	active
SLC17A3 (GeneID 10786)	-1.42	inactive
SLC17A3 (GeneID 10786)	-1.34	inactive
SLC17A3 (GeneID 10786)	-0.75	inactive
PLD2 (GeneID 5338)	0.68	inactive
PLD2 (GeneID 5338)	0.82	inactive
PLD2 (GeneID 5338)	0.51	inactive
PLD2 (GeneID 5338)	-0.8	inactive
SIPA1L2 (GeneID 57568)	-0.89	inactive
SIPA1L2 (GeneID 57568)	-0.6	inactive
SIPA1L2 (GeneID 57568)	-0.41	inactive
SIPA1L2 (GeneID 57568)	0.23	inactive
KREMEN1 (GeneID 83999)	0.96	inactive
KREMEN1 (GeneID 83999)	1.17	inactive
KREMEN1 (GeneID 83999)	-0.18	inactive
KREMEN1 (GeneID 83999)	3.59	active
FKBP2 (GeneID 2286)	-0.34	inactive
FKBP2 (GeneID 2286)	-0.36	inactive
FKBP2 (GeneID 2286)	-0.42	inactive
FKBP2 (GeneID 2286)	-0.54	inactive
ZFY (GeneID 7544)	0.93	inactive
ZFY (GeneID 7544)	2.2	inactive
ZFY (GeneID 7544)	1.18	inactive
ZFY (GeneID 7544)	2.1	inactive
CDC50A (GeneID 55754)	0.03	inactive
CDC50A (GeneID 55754)	-0.36	inactive
CDC50A (GeneID 55754)	0.09	inactive
CDC50A (GeneID 55754)	0.19	inactive
SUPT3H (GeneID 8464)	7.89	active
SUPT3H (GeneID 8464)	3.2	active
SUPT3H (GeneID 8464)	1.02	inactive
SHISAL2A (GeneID 348378)	-0.14	inactive
SHISAL2A (GeneID 348378)	2.2	inactive
SHISAL2A (GeneID 348378)	-0.09	inactive
SHISAL2A (GeneID 348378)	0.83	inactive
DPPA5 (GeneID 340168)	-0.35	inactive
DPPA5 (GeneID 340168)	0.31	inactive
DPPA5 (GeneID 340168)	-0.48	inactive
DPPA5 (GeneID 340168)	-0.07	inactive
KRT72 (GeneID 140807)	-0.37	inactive
KRT72 (GeneID 140807)	-0.43	inactive
KRT72 (GeneID 140807)	0.95	inactive
KRT72 (GeneID 140807)	0.73	inactive
OR4K15 (GeneID 81127)	2.74	inactive
OR4K15 (GeneID 81127)	0.81	inactive
OR4K15 (GeneID 81127)	0.46	inactive
OR4K15 (GeneID 81127)	0.57	inactive
SCGB1A1 (GeneID 7356)	-0.09	inactive
SCGB1A1 (GeneID 7356)	-0.32	inactive
SCGB1A1 (GeneID 7356)	0.93	inactive
SCGB1A1 (GeneID 7356)	0.49	inactive
GNAO1 (GeneID 2775)	-0.89	inactive
GNAO1 (GeneID 2775)	-0.25	inactive
GNAO1 (GeneID 2775)	-0.95	inactive
GNAO1 (GeneID 2775)	-0.93	inactive
NOL10 (GeneID 79954)	-0.38	inactive
NOL10 (GeneID 79954)	-0.39	inactive
NOL10 (GeneID 79954)	-1.06	inactive
NOL10 (GeneID 79954)	0.72	inactive
SYNPO2L (GeneID 79933)	1.14	inactive
SYNPO2L (GeneID 79933)	2.12	inactive
SYNPO2L (GeneID 79933)	2.87	active
SYNPO2L (GeneID 79933)	0.81	inactive
SLCO1C1 (GeneID 53919)	-1.33	inactive
SLCO1C1 (GeneID 53919)	-1.37	inactive
SLCO1C1 (GeneID 53919)	-1.97	active
SLCO1C1 (GeneID 53919)	-0.35	inactive
LCNL1 (GeneID 401562)		inactive
LCNL1 (GeneID 401562)	-0.88	inactive
LCNL1 (GeneID 401562)	-1.09	inactive
LCNL1 (GeneID 401562)	-0.72	inactive

Continued, starting with the last 11 of the part before.
Gene	TNF reporter robust z-score	outcome
SYNPO2L (GeneID 79933)	2.12	inactive
SYNPO2L (GeneID 79933)	2.87	active
SYNPO2L (GeneID 79933)	0.81	inactive
SLCO1C1 (GeneID 53919)	-1.33	inactive
SLCO1C1 (GeneID 53919)	-1.37	inactive
SLCO1C1 (GeneID 53919)	-1.97	active
SLCO1C1 (GeneID 53919)	-0.35	inactive
LCNL1 (GeneID 401562)		inactive
LCNL1 (GeneID 401562)	-0.88	inactive
LCNL1 (GeneID 401562)	-1.09	inactive
LCNL1 (GeneID 401562)	-0.72	inactive
ATIC (GeneID 471)	1.41	inactive
ATIC (GeneID 471)	1.99	inactive
ATIC (GeneID 471)	1.07	inactive
ATIC (GeneID 471)	1.81	inactive
IGSF10 (GeneID 285313)	0.34	inactive
IGSF10 (GeneID 285313)	-0.15	inactive
IGSF10 (GeneID 285313)	-1.02	inactive
IGSF10 (GeneID 285313)	-0.74	inactive
PHAF1 (GeneID 80262)	-0.06	inactive
PHAF1 (GeneID 80262)	0.53	inactive
PHAF1 (GeneID 80262)	0.22	inactive
PHAF1 (GeneID 80262)	2.33	inactive
CACYBP (GeneID 27101)	0.36	inactive
CACYBP (GeneID 27101)	1.03	inactive
CACYBP (GeneID 27101)	0.26	inactive
CACYBP (GeneID 27101)	1.22	inactive
HNRNPLL (GeneID 92906)	0.74	inactive
HNRNPLL (GeneID 92906)	0.01	inactive
HNRNPLL (GeneID 92906)	0.47	inactive
HNRNPLL (GeneID 92906)	2.15	inactive
IFT43 (GeneID 112752)	1.01	inactive
IFT43 (GeneID 112752)	2.79	inactive
IFT43 (GeneID 112752)	1.14	inactive
IFT43 (GeneID 112752)	1.44	inactive
ATP8B4 (GeneID 79895)	1.21	inactive
ATP8B4 (GeneID 79895)	1.37	inactive
ATP8B4 (GeneID 79895)	1.32	inactive
ATP8B4 (GeneID 79895)	1.05	inactive
THBS4 (GeneID 7060)	-0.58	inactive
THBS4 (GeneID 7060)	0.01	inactive
THBS4 (GeneID 7060)	-0.23	inactive
THBS4 (GeneID 7060)	-1.39	inactive
C5AR2 (GeneID 27202)	0.24	inactive
C5AR2 (GeneID 27202)	-0.12	inactive
C5AR2 (GeneID 27202)	-0.02	inactive
C5AR2 (GeneID 27202)	1.37	inactive
TWIST1 (GeneID 7291)	7.74	active
TWIST1 (GeneID 7291)	2.63	inactive
TWIST1 (GeneID 7291)	1.91	inactive
TWIST1 (GeneID 7291)	4.17	active
